Assay type: biochemical, Apium graveolens
Procedure: Many different variables were studied to maximize the expression and activity of MDH. MDH activity was monitored with the conversion of D-mannitol to D-mannose in the presence of NAD. The conversion was monitored spectrophotometrically by measuring the increasing concentration of NADH, the cofactor product of the oxidation of mannitol to mannose. For a given experiment, lysate protein concentrations were normalized.
The pH profile for MDH for the oxidation reactions was also tested. […] This range could be beneficial for in vitro bioconversions with enzymatic NAD cofactor recycling methods. Increasing the activity of MDH at neutral pH could improve in vivo fermentation activity as the interior of the E. coli cell has a pH lower than 9.0.[21]
The recombinant MDH was tested for activity at various temperatures. Lysates containing expressed MDH were incubated with D-mannitol and NAD at pH 9.0. Activity was measured by measuring the increased NADH concentration spectrophotometrically at A340nm. […] See, FIG. 12.
The thermostability of recombinant MDH was also tested. Lysates containing MDH were incubated at various temperatures. Aliquots of MDH were removed at various times to measure MDH activity using the assay described above. See, FIG. 13.

MDH: NAD-dependent mannitol-1-dehydrogenase from Apium graveolens, recombinantly expressed in E. coli
Temperature of maximal activity (lysates, D-mannitol and NAD at pH 9.0): approximately 39 °C
pH of highest activity (oxidation reactions): 9.0

Reference: US8642297B2, “Production of L-ribose and other rare sugars” (ZuChem, Inc., priority 2005, dated 2014)
